# Among all 320,000 compounds or so, about 22,000 (6.9%) were called active. This list was built around the results that the source calls inconclusive (neither active nor inactive); the mix of calls is not that of the screen. The call rests on the fitted dose curve; in most records, active means well fitted inhibition curve with a large enough effect; inconclusive means small, poorly fitted or top-dose-only effect, or another doubt; inactive means no such curve, though single readings can be large or run the other way. Where the call is inconclusive, the potency comes from a doubtful curve fit.
# Experiment: Primary qHTS for delayed death inhibitors of the malarial parasite plastid, 96 hour incubation
# Conditions: P. falciparum luciferase reporter growth; series mostly up to 28.7 µM
# Summary of the method: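 Cell-based qHTS: luciferase-tagged P. falciparum in erythrocytes (2% hematocrit, 0.05% parasitemia final) incubated with compounds for 96 hours, 37 C, 5% CO2; luciferase detection reagent then added and luminescence measured.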
# Potency means the concentration at half of the fitted maximal effect.
row,Compound,Potency
1,O=C(Nc1cc(-c2ccccc2)cs1)c1ccco1,active: 2.33 µM
2,Cc1cc(C)n2nc(C(=O)Nc3ccn(Cc4ccccc4C)n3)cc2n1,"inconclusive: 9.28 µM [inhibitor, partial curve]"
3,CN1CCN(C2=C(Cl)C(=O)N(C3CCCCC3)C2=O)CC1,inactive
4,Cc1oc(-c2cccc(Cl)c2)nc1CS(=O)(=O)CC(=O)NCCCN1CCOCC1,"inconclusive: 18.5 µM [inhibitor, single point]"
5,NC(=O)c1ccc(NC(=O)CCC(=O)c2cccs2)cc1,inactive
6,C/C(=N/NC(=O)c1sc(NS(=O)(=O)c2ccccc2)nc1C)c1ccc(F)cc1,"inconclusive: 8.28 µM [inhibitor, partial curve, poor fit]"
7,COc1cccc(/C=C2/Sc3ccc(C(=O)NCCN4CCCC4)cc3NC2=O)c1,"inconclusive: 18.5 µM [inhibitor, single point]"
8,CCOC(=O)C1CCCN(C2=NC(=O)/C(=C/c3ccc(OC)cc3)S2)C1 (centres undefined),"inconclusive: 9.28 µM [inhibitor, partial curve, poor fit]"
9,COc1ccc(CCC(C)NCc2ccc(C(F)(F)F)cc2)cc1 (centres undefined),"inconclusive: 18.5 µM [inhibitor, single point]"
10,O=C(Nc1ccc(F)cc1F)c1cccn1-c1ncc(C(F)(F)F)cc1Cl,"inconclusive: 18.5 µM [inhibitor, partial curve, poor fit]"
11,Cc1[nH]c(C)c(S(=O)(=O)NCc2ccco2)c1C(=O)N1CCCCC1,inactive
12,Cc1cccc(C(=O)N(c2ccccn2)C(C)c2ccco2)c1 (centres undefined),inactive
13,CCOC(=O)Nc1ccc2c(c1)N(C(=O)CN)c1ccccc1CC2,"inconclusive: 18.5 µM [inhibitor, single point]"
14,Cc1ccc(NS(=O)(=O)c2ccc(OCC(=O)Nc3cccc([N+](=O)[O-])c3)c(C)c2)cc1,active: 14.7 µM
15,CC(C)Oc1ccc(C(=O)/C(=C\c2cccs2)c2nc3ccccc3o2)cc1,"inconclusive: 18.5 µM [inhibitor, single point]"
16,CCOC(=O)NC(=O)/C(C#N)=C\NNc1ncc(C(F)(F)F)cc1Cl,"inconclusive: 10.4 µM [inhibitor, single point]"
17,Cn1c(Nc2cccc(Cl)c2)nc2ccccc21,inactive
18,Cc1ccc(C(=O)NC(NC(=O)c2ccc(C)cc2)c2cccc([N+](=O)[O-])c2)cc1,"inconclusive: 14.7 µM [inhibitor, single point]"
19,CC1(C)Cc2c(sc3ncn(N)c(=N)c23)CO1,"inconclusive: 0.522 µM [inhibitor, full curve, poor fit]"
20,O=C1CC(/C=C/c2ccc(Cl)cc2)=Nc2ccccc2N1,"inconclusive: 10.4 µM [inhibitor, single point]"
21,Cc1ccc(CSCC(=O)N2CCN(Cc3ccc4c(c3)OCO4)CC2)cc1,"inconclusive: 11.7 µM [inhibitor, single point]"
22,CCN(CC)CCC(c1ccc2c(c1)OCO2)c1c(OC)cc(OC)c2ccc(=O)oc12 (centres undefined),"inconclusive: 9.28 µM [inhibitor, single point]"

# A portion taken from the entries so far, as a working copy:
row,Compound,Potency
9,COc1ccc(CCC(C)NCc2ccc(C(F)(F)F)cc2)cc1 (centres undefined),"inconclusive: 18.5 µM [inhibitor, single point]"
10,O=C(Nc1ccc(F)cc1F)c1cccn1-c1ncc(C(F)(F)F)cc1Cl,"inconclusive: 18.5 µM [inhibitor, partial curve, poor fit]"

# Carrying on.

row,Compound,Potency
1,COc1ccc(C(=O)n2cc(C(=O)c3cc(C)ccc3O)cn2)cc1OC,"inconclusive: 0.0029 µM [inhibitor, full curve, poor fit]"
2,COc1cccc(CN(CC(=O)NCc2ccco2)C(=O)CNS(=O)(=O)c2ccccc2)c1,inactive
3,O=C(/C=C/c1ccc2c(c1)OCO2)Nc1nc2ccccc2s1,inactive
4,Cc1ccc(-c2nc3ncccn3c2NC(=O)C2CC2)cc1,"inconclusive: 13.1 µM [inhibitor, single point]"
5,Cc1nonc1N1CCN(Cc2cn[nH]c2-c2ccc3c(c2)OCO3)CC1,"inconclusive: 5.86 µM [inhibitor, partial curve, poor fit]"
6,C/C=C(\C)C(=O)Nc1cccc(C2=NOC3(C2)C[C@H](C(N)=O)N(C(=O)c2cc([N+](=O)[O-])cc([N+](=O)[O-])c2)C3)c1 (some centres undefined),"inconclusive: 18.5 µM [inhibitor, single point]"
7,CC(O)/C=C/c1cccc[n+]1C (centres undefined),"inconclusive: 4.65 µM [inhibitor, partial curve, poor fit]"
8,COc1cc(Cn2c(-c3ccc(O)c(OC)c3)nc3ccccc32)ccc1O,active: 13.1 µM
9,CCOC(=O)c1c(NC(C)=O)no[n+]1[O-],"inconclusive: 18.5 µM [inhibitor, single point]"
10,O=C(NCCc1c[nH]c2ccccc12)C1Cc2ccccc2CN1C(=O)c1ccco1 (centres undefined),"inconclusive: 9.28 µM [inhibitor, partial curve]"
11,COc1ccc(N(CC(=O)NCc2ccc(C)cc2)S(=O)(=O)c2c(C)noc2C)cc1,active: 2.33 µM
12,C#C[C@]1(O)CCC2C3CCC4=CC(=O)CCC4C3CC[C@@]21C (some centres undefined),"inconclusive: 15.1 µM [inhibitor, partial curve, poor fit]"
13,c1cncc(CNc2ncnc3ccc(-c4ccco4)cc23)c1,"inconclusive: 14.7 µM [inhibitor, single point]"
14,NC(=O)c1ccc(NCCc2ccccc2)c([N+](=O)[O-])c1,"inconclusive: 18.5 µM [inhibitor, single point]"
15,COC(=O)c1ccc(C(=O)OC)c(NC(=S)N2CCN(c3cc(Cl)ccc3C)CC2)c1,"inconclusive: 8.28 µM [inhibitor, partial curve]"
16,O=C1NC2(CCCCC2)C(=O)N1Cc1cccc(C(F)(F)F)c1,"inconclusive: 9.28 µM [inhibitor, single point]"
17,COc1ccc(CC(=O)N(CCC2=CCCCC2)c2c(N)n(Cc3ccccc3)c(=O)[nH]c2=O)cc1OC,"inconclusive: 10.4 µM [inhibitor, single point]"
18,O=C(NCCCc1ccccc1)C(=O)NCC1OCCN1S(=O)(=O)c1ccc(F)cc1 (centres undefined),"inconclusive: 3.7 µM [inhibitor, partial curve, poor fit]"
19,O=C(/C=C\Nc1ccc(S(=O)(=O)Nc2ncccn2)cc1)c1ccccc1,inactive
20,Cc1c(NC(=O)c2ccc(CN3CCc4ccccc4C3)cc2)c(=O)n(-c2ccccc2)n1C,"inconclusive: 1.31 µM [inhibitor, partial curve, poor fit]"
21,CCc1nc(SCC(=O)N2c3ccccc3CC2C)c2c(C)c(C)sc2n1 (centres undefined),"inconclusive: 18.5 µM [inhibitor, single point]"
22,CN(C)CC(O)COC(c1ccccc1)c1ccccc1 (centres undefined),inactive

# Rewritten with tabs: part of the list above.
row	Compound	Potency
1	COc1ccc(C(=O)n2cc(C(=O)c3cc(C)ccc3O)cn2)cc1OC	inconclusive: 0.0029 µM [inhibitor, full curve, poor fit]
14	NC(=O)c1ccc(NCCc2ccccc2)c([N+](=O)[O-])c1	inconclusive: 18.5 µM [inhibitor, single point]

# Remaining list, next part.

row,Compound,Potency
1,COc1ccc(OC)c(CCNC(=O)Cc2ccc(NC3=NC4CS(=O)(=O)CC4S3)cc2)c1 (centres undefined),"inconclusive: 18.5 µM [inhibitor, single point]"
2,O=C(Cc1cccs1)NCc1ccccc1,"inconclusive: 18.5 µM [inhibitor, partial curve, poor fit]"
3,Cc1ccc(NC(=O)CSCc2cc(=O)n3nc(C4CC4)sc3n2)cc1,"inconclusive: 18.5 µM [inhibitor, single point]"
4,COc1cc(/C=N/NC(=O)c2cccnc2)ccc1OC(=O)c1ccc([N+](=O)[O-])cc1,"inconclusive: 1.47 µM [inhibitor, full curve, poor fit]"
5,COc1cc(NC(=O)CSCc2cnn(-c3ccccc3)c2-n2cccc2)cc(OC)c1,"inconclusive: 0.828 µM [inhibitor, partial curve, poor fit]"
6,O=C(c1ccc2ccccc2c1)C1CCCN(C(=O)c2cccnc2)C1 (centres undefined),inactive
7,CCCCn1c(N)c(N(Cc2ccccc2OC)C(=O)c2cc(=O)[nH]c3ccccc23)c(=O)[nH]c1=O,"inconclusive: 1.85 µM [inhibitor, full curve]"
8,CCCn1c(C(C)Nc2nc(-c3cc(Cl)c(N)c(Cl)c3)cs2)nc2cc(Cl)c(N3CCCCC3)cc21 (centres undefined),active: 7.38 µM
9,CSc1nc(C(=O)N2CCCC(C(=O)c3ccc(Cl)cc3)C2)cs1 (centres undefined),"inconclusive: 10.4 µM [inhibitor, partial curve]"
10,O=C(Nc1ccc(F)c(F)c1)C1CCN(S(=O)(=O)c2cccs2)CC1,"inconclusive: 4.65 µM [inhibitor, partial curve, poor fit]"
11,COCCn1c(=N)c(S(=O)(=O)c2ccc(Br)cc2)cc2c(=O)n3ccccc3nc21,"inconclusive: 10.4 µM [inhibitor, single point]"
12,COCCn1nnnc1C(CC(C)C)N1CCN(c2cccc(OC)c2)CC1 (centres undefined),"inconclusive: 9.28 µM [inhibitor, partial curve, poor fit]"
13,Cc1ccc(S(=O)(=O)N(CCCO)CC(O)CON=C2c3ccccc3-c3ccccc32)cc1 (centres undefined),active: 9.28 µM
14,CN(C)C(CNC(=O)c1ccc(NS(=O)(=O)c2ccc(F)c(F)c2)cc1)c1ccccc1 (centres undefined),inactive
15,CN1CCc2c(sc(NC(=O)c3cc4cc([N+](=O)[O-])ccc4s3)c2C(N)=O)C1,"inconclusive: 7.38 µM [inhibitor, partial curve, poor fit]"
16,CC1CCCN(S(=O)(=O)c2ccc(CN3C(=O)c4cccnc4C3=O)cc2)C1 (centres undefined),"inconclusive: 18.5 µM [inhibitor, single point]"
17,COc1ccc2oc(C(=O)Nc3ccc(N4CCOCC4)cc3)c(C)c2c1,"inconclusive: 14.7 µM [inhibitor, partial curve]"
18,CCc1cccc(C)c1NC(=S)N(CCCN1CCOCC1)Cc1cccnc1,"inconclusive: 20.8 µM [inhibitor, partial curve, poor fit]"
19,CCC(=O)Nc1cccc(C2=NOC3(C2)C[C@@H](C(N)=O)N(C(=O)CC)C3)c1 (some centres undefined),inactive
20,CCc1ccc(OCC(=O)N(Cc2ccccc2)C2CCS(=O)(=O)C2)cc1 (centres undefined),inactive

# From PubChem BioAssay AID504834 (National Center for Advancing Translational Sciences (NCATS), 2011)
